# Source: patent publication US7977477B2, “Benzimidazole derivatives and their use as protein kinase inhibitors” (Astex Therapeutics, Limited, priority 2003, dated 2011)
# Some results were stated once for a whole list of compounds, not compound by compound.
# Target: T1, CDK2/CyclinA (Homo sapiens, UniProt P24941)
# T1 construct: purchased Upstate Biotechnology
# Assay: CDK2 kinase inhibitory activity (Example 306, Protocol A or B)
# Assay type: biochemical
# Conditions: alternative criterion: at least 50% inhibition at 10 μM
# Method: Compounds of the invention were tested for kinase inhibitory activity using either Protocol A or Protocol B.
# 1.7 μl of active CDK2/CyclinA (Upstate Biotechnology, 10 U/μl) is diluted in assay buffer (250 μl of 10× strength assay buffer (200 mM MOPS pH 7.2, 250 mM β-glycerophosphate, 50 mM EDTA, 150 mM MgCl2), 11.27 μl 10 mM ATP, 2.5 μl 1M DTT, 25 μl 100 mM sodium orthovanadate, 708.53 μl H2O), and 10 μl mixed with 10 μl of histone substrate mix (60 μl bovine histone H1 (Upstate Biotechnology, 5 mg/ml), 940 μl H2O, 35 μCi γ^33P-ATP) and added to 96 well plates along with 5 μl of various dilutions of the test compound in DMSO (up to 2.5%). The reaction is allowed to proceed for 5 hours before being stopped with an excess of ortho-phosphoric acid (30 μl at 2%).
# γ^33P-ATP which remains unincorporated into the histone H1 is separated from phosphorylated histone H1 on a Millipore MAPH filter plate. […] Once the filters have dried, 25 μl of Microscint 20 scintillant is added, and then counted on a Packard Topcount for 30 seconds. […]
# γ^33P-ATP which remains unincorporated into the histone H1 is separated from phosphorylated histone H1 on a Millipore MAPH filter plate. […] Once the filters have dried, 20 μl of Microscint 20 scintillant is added, and then counted on a Packard Topcount for 30 seconds.
substance,measurement,value
"2,6-Difluoro-N-[3-(4-hydroxymethyl-1H-benzimidazol-2-yl)-1H-pyrazol-4-yl]-benzamide and Acetic Acid 2-[4-(2,6-difluoro-benzoylamino)-1H-pyrazol-3-yl]-1H-benzimidazol-4-ylmethyl ester [Example 11]",IC50,< 20 µM
